Experimental data reported in PubChem BioAssay AID2685 (National Center for Advancing Translational Sciences (NCATS), 2010).
About 2,100 (0.66%) of roughly 320,000 compounds were called active. The shares of active, inactive and inconclusive entries below differ from those in the screen. Calls come from the whole dose curve; as a rule, active = well fitted inhibition curve with a large enough effect in the signal ratio, with a control signal flat (not every such curve was filed as active); inconclusive = small, poorly fitted or top-dose-only effect, or effect the other way, or a change in a side signal; inactive = flat fitted curve, though single readings scatter; the % refers to the signal ratio. Potencies of inconclusive entries are doubtful fits and often do not repeat.

Assay: qHTS Assay for Lipid Storage Modulators in Drosophila S3 Cells
Conditions: BODIPY lipid droplet fluorescence, 18-24 h, cells fed with added oleic acid; lipid storage change, negative = inhibition: at 46.1 µM (top of the series) unless noted
Summary of the method: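 Drosophila S3 cells got compounds at several concentrations plus oleic acid (400 uM solution). Laser-scanning cytometry with 488 nm excitation read lipid droplets at 500-530 nm and cells at 575-640 nm. Percent activity was relative to 20 uM Triacsin C.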
% is set by controls: 0 for no effect and ±100 for the full control effect; potency is the fitted concentration of half-maximal effect.

SMILES | Potency | lipid storage change, negative = inhibition | outcome
COCCSc1nnc(-c2cnccn2)o1 | inconclusive: 0.0184 µM [falling, full curve] | – | –
O=C(CNc1cccc(S(=O)(=O)N2CCCC2)c1)Nc1ccc(F)cc1F | inconclusive: 29.1 µM [falling, single point] | – | –
CCNC(=O)CN(c1ccc(Cl)cc1)S(=O)(=O)c1ccccc1 | – | inconclusive: 49.7% | –
COc1ccc(C(C)C)cc1S(=O)(=O)Nc1ccccn1 | – | inconclusive: -15.9% | –
CS(=O)(=O)Nc1ccc(C2=NN(S(C)(=O)=O)C(c3ccc4nccnc4c3)C2)cc1 (stereo not drawn) | – | inconclusive: -2.22% | –
NC(=O)C1CNc2ccccc2O1 (stereo not drawn) | – | inconclusive: -15.6% | –
CCOC(=O)N1CCN(C(=O)/C=C/c2ccc([N+](=O)[O-])cc2)CC1 | – | inconclusive: -34% [at 0.00295 µM] | –
O=C(O/N=C1\CCCc2ccccc21)c1ccc(F)cc1 | inconclusive: 18.4 µM [rising, single point] | – | –
Cc1nc(CCNC(=O)COc2ccccc2)cs1 | inconclusive: 14.6 µM [rising, single point] | – | –
COCCOC(=O)c1c(C)oc2ccc(OC(=O)c3ccco3)cc12 | – | inconclusive: -9.58% | –
Cc1onc(-c2ccccc2)c1C(=O)NC1CCC(C)CC1 (stereo not drawn) | inconclusive: 0.0058 µM [falling, full curve, poor fit] | – | –
CCOc1cc(NC(=O)C2CC2)c(OCC)cc1NC(=O)c1cccnc1 | inconclusive: 1.03 µM [activator, full curve, poor fit] | – | –
COc1ccccc1C(=O)OCC(=O)c1cccc([N+](=O)[O-])c1 | – | inconclusive: -18.1% | –
COc1ccc(OC)c(NC(=O)NC2CCCc3ccccc32)c1 (stereo not drawn) | – | inconclusive: 45.4% | –
Cc1ccc(NC(=S)NNC(=O)c2nn(C)c(C)c2Cl)cc1 | – | inconclusive: 12.2% | –
COc1ccc(N(C(=O)c2ccn[nH]2)C(C(=O)NC(C)(C)C)c2ccc(F)cc2)cc1 (stereo not drawn) | – | inconclusive: 33.2% | –
COC(=O)CSc1nnc(-c2cccnc2)n1C | – | inconclusive: -11.5% | –
Cc1ccc(N(C(=O)c2csnn2)C(C(=O)NC2CCCCC2)c2ccncc2)cc1 (stereo not drawn) | inconclusive: 5.8 µM [activator, single point] | – | –
COc1ccc(/C=C2\CCn3c2nc2ccccc2c3=O)cc1OC | – | inconclusive: 4.17% | –
CCOc1cc(Br)cc(/C=N/NC(=O)c2cccnc2)c1O | inconclusive: 6.51 µM [activator, partial curve, poor fit] | – | –
COc1ccc(C(C(=O)NC2CCCC2)N(CCO)C(=O)Cn2nnc(-c3ccc(C)o3)n2)cc1OC (stereo not drawn) | – | inconclusive: 71.1% | –
CC1=CC(C)(C)N(C(=O)CSc2nnc(C)s2)c2ccc(C)cc21 | inconclusive: 20.6 µM [falling, partial curve] | – | –
CNC(=O)c1ccc(Oc2ccc(C(=O)NC)cc2)cc1 | inconclusive: 0.731 µM [activator, full curve, poor fit] | – | –
COc1ccc(OC)c(CNS(=O)(=O)c2cc(-c3cc(C)no3)ccc2OC)c1 | – | inconclusive: 3.83% | –
Cc1occc(=O)c1O | – | inconclusive: -2.83% | –
CCN1CCN(CCCNC(=O)c2ccc(/C=C3/Sc4ccccc4N(Cc4ccccc4F)C3=O)cc2)CC1 | – | inconclusive: -19.4% | –

SMILES | Potency | lipid storage change, negative = inhibition | outcome
C1=C(CCNc2ncnc3nc[nH]c23)CCCC1 | active: 16.4 µM | – | –
Cc1csc(Sc2ccc([N+](=O)[O-])cc2C(=O)OCC(=O)NC2CCCC(C)C2C)n1 (stereo not drawn) | – | inconclusive: -26.5% | –
CC1CCN(C(=O)c2[nH]cnc2C(=O)NCC(=O)OC(C)(C)C)CC1 | – | inconclusive: 25.5% | –
O=C1C=C(c2ccc(Cl)c(C(F)(F)F)c2)C[C@@H](c2ccc(F)cc2)C1 | inconclusive: 29.1 µM [falling, single point] | – | –
CCN(C(=O)CCc1nnc2ccc(N3CCC4(CC3)OCCO4)nn12)c1ccccc1 | – | inconclusive: -13.8% | –
O=S(=O)(c1ccc(NCc2ccccc2)cc1)N1CCOCC1 | – | inconclusive: 16.7% | –
CCc1nc(OCC(=O)c2ccccc2)c(C#N)c2c1COC(C)(C)C2 | inconclusive: 0.517 µM [rising, single point] | – | –
CC(=O)Nc1ccc(N(CC(O)Cn2c3ccccc3c3ccccc32)S(=O)(=O)c2ccc(C)cc2)cc1 (stereo not drawn) | – | inconclusive: -10.6% | –
C/C=C/C(=O)OCC(=O)Nc1cccc(Br)c1 | – | inconclusive: -25.7% | –
Cc1cccc(-c2nnc(SCC(=O)Nc3ncccn3)n2C)c1 | inconclusive: 0.461 µM [falling, full curve, poor fit] | – | –
O=C(O)[C@H]1CCCC[C@H]1C(=O)Nc1ccc(S(=O)(=O)N2CCOCC2)cc1 | – | inconclusive: 30.6% | –
COc1ccc(CCOC(=O)CNC(=O)c2ccc(Cl)cc2Cl)cc1 | – | inconclusive: -13.8% | –
Cc1[nH]n(-c2ccc([N+](=O)[O-])cc2)c(=O)c1C=NCCN1CCN(C(=O)c2ccc(F)cc2)CC1 | – | inconclusive: -1.72% | –
COC(=O)c1c(C)[nH]c(C(=O)C(C)OC(=O)C2CC(=O)N(CCc3ccccc3)C2)c1C (stereo not drawn) | – | inconclusive: -14.4% | –
COCCN1CN=C(Nc2nc3ccccc3s2)NC1 | – | inconclusive: -17.2% | –
CN1CCN(S(=O)(=O)c2cccc(C(=O)Oc3ccc(Br)cc3F)c2)CC1 | – | inconclusive: 33.9% | –
CCS(=O)(=O)NCC(c1ccco1)N1CCN(c2ccccc2F)CC1 (stereo not drawn) | – | inconclusive: 13.3% | –
C=CCSc1cc(C)nc2c(-c3ccc(Cl)cc3)c(C)nn12 | – | inconclusive: 35.5% | –
COc1ccc(C(=O)Nc2cccc(S(=O)(=O)NC3=NCCCCC3)c2)cc1 | – | inactive: 10.1% | –
CN(C)C(/C=C/Nc1ccc([N+](=O)[O-])cc1)=C(C#N)C#N | – | inconclusive: 0.766% | –
O=C1c2ccccc2C(=O)N1CCCCSc1nnc2ccccn12 | – | inconclusive: 3.35% | –
Cc1nn(-c2ccccc2)c(N2CCCC2)c1/C=N/NC(=O)C1CC1 | – | inconclusive: 24.9% | –
O=c1c2cc(-c3ccccc3)sc2nc2n1CCC2 | – | inconclusive: -45.9% | –
COc1ccc(C2C(C(=O)N3CCOCC3)CCC(=O)N2c2ccc(OC)cc2)cc1 (stereo not drawn) | inconclusive: 3.26 µM [rising, partial curve] | – | –
O=C(Cn1cnc(S(=O)(=O)N2CCCC2)c1)Nc1cccc(Br)c1 | inconclusive: 29.1 µM [activator, single point] | – | –
CCn1c(-c2cc(C3CC3)nc3ccccc23)n[nH]c1=S | – | inconclusive: 26.8% | –

SMILES | Potency | lipid storage change, negative = inhibition | outcome
Cc1cc(NC(=O)c2ccc3c(c2)OCO3)ccc1NC(=O)c1ccccc1 | – | inconclusive: -100% | –
COc1ccc(NC(=O)COC(=O)c2c3c(nc4ccccc24)CCCC3)cc1Cl | – | inconclusive: 169% | –
CSc1nnc(C(C)c2ncc(C(F)(F)F)cc2Cl)n1C (stereo not drawn) | – | inactive: 10.3% | –
CC(C)c1ccc(OCc2ccc(C(=O)N(C)C)o2)cc1 | – | inconclusive: -26.6% | –
COc1ccc(N(C(=O)c2ccco2)S(=O)(=O)c2cccc([N+](=O)[O-])c2)cc1 | – | inconclusive: -0.85% | –
CC(C)(C)OC(=O)NCCc1nnc(SCC(N)=O)o1 | – | inconclusive: -16.8% | –
O=C(NC(=O)c1ccccc1)C1=C(N2CCCC2)COC1=O | – | inconclusive: -5.42% | –
COc1ccc(CNC(=O)C[C@H]2C(=O)N(Cc3ccc(OC)cc3)C[C@@H]2Cc2ccccc2)cc1 | – | inconclusive: 6.03% | –
O=C(NNS(=O)(=O)c1ccc(F)cc1)c1ccccc1 | inconclusive: 20.6 µM [activator, partial curve] | – | –
c1ccc(-c2nnc(CSc3nnc(-c4cccs4)o3)o2)cc1 | inconclusive: 23.1 µM [activator, partial curve] | – | –
O=c1cc(O)n(Cc2ccc(F)cc2)c(=O)[nH]1 | – | inconclusive: -39.4% | –
Cc1ccc(S(=O)(=O)Nc2cc(C(C)C)c(O)cc2C)cc1 | – | inactive: 6.78% | –
O=C(COC(=O)c1cc(S(=O)(=O)N2CCOCC2)c(Cl)cc1Cl)c1ccc[nH]1 | – | inconclusive: -0.999% | –
Cc1cc(/C=N/NC(N)=O)c(C)n1C1CCCCC1 | – | inconclusive: 85.5% | –
C#C[C@]1(O)CC[C@H]2[C@@H]3CCc4cc(O)ccc4[C@H]3CC[C@@]21C | – | inconclusive: 0.378% | –
CC(C)CN(C(=O)c1cccc(F)c1)c1c(N)n(CC(C)C)c(=O)[nH]c1=O | inconclusive: 3.66 µM [activator, full curve] | – | –
COc1ccccc1OCC(=O)Nc1c2c(nn1-c1ccc(F)cc1)CS(=O)(=O)C2 | inconclusive: 0.164 µM [falling, full curve] | – | –
Cc1ccc(-c2nnc(SCC(=O)N3CCOCC3)nc2-c2ccc(C)cc2)cc1 | inconclusive: 0.291 µM [falling, full curve, poor fit] | – | –
Cc1nn(C)c(C)c1S(=O)(=O)N1CCc2ccccc21 | – | inconclusive: 18.3% | –
CCOCCCNC(=S)N1CCCN(c2nc3cc(C)c(C)cc3cc2C#N)CC1 | inconclusive: 5.17 µM [falling, partial curve, poor fit] | – | –
COc1ccc(Nc2nc(N)nc(SCc3nnc(C)s3)n2)cc1 | inconclusive: 5.17 µM [activator, partial curve] | – | –
COc1cc(OC)c(OC)cc1CNC(=O)c1cc(=O)c2ccccc2o1 | – | inconclusive: 53.4% | –
O=C(/C=C/c1ccccc1)Nc1scc(-c2ccccc2)c1C(=O)O | – | inconclusive: 7.66% | –
CCN(CC)S(=O)(=O)c1cc(C(=O)Nc2cccnc2Cl)ccc1Cl | – | – | inactive [at 46.1 µM]
C=CCSc1nc(C)cc2c1C(=O)OC2 | – | inactive: -1.91% | –
CCN(CC)C(=O)CC(c1ccc2c(c1)OCO2)c1c(O)cc(OC)cc1OC (stereo not drawn) | – | inconclusive: 18.3% | –

3 compounds from above, arranged by SMILES length, rising.
SMILES | Potency | lipid storage change, negative = inhibition | outcome
COc1cc(OC)c(OC)cc1CNC(=O)c1cc(=O)c2ccccc2o1 | – | inconclusive: 53.4% | –
COc1ccc(N(C(=O)c2ccco2)S(=O)(=O)c2cccc([N+](=O)[O-])c2)cc1 | – | inconclusive: -0.85% | –
Cc1[nH]n(-c2ccc([N+](=O)[O-])cc2)c(=O)c1C=NCCN1CCN(C(=O)c2ccc(F)cc2)CC1 | – | inconclusive: -1.72% | –
